SMILES strings stand for the structures. The list shows only some results of the screen, not a fair sample: it is rich in T/C values a quarter to a half above the control, in often repeated tests (any T/C) and in doses without a T/C. Other doses and runs of a compound stand elsewhere. T/C: endpoint of the treated group in % of that of the vehicle group. Some doses have a count of surviving animals in place of a T/C: the source files T/C as zero there, which appears to mark a toxic dose or a test without result, not a measured value. Some survivor counts are full or nearly so, which does not show that the dose was tolerated: survival well below the control is almost never listed, so the zero probably covers shortened survival too. Counts of survivors are from the toxicity check (mostly the fifth day) where no day follows; animals may have died later. Schedule codes are those of the source, read here as Q, the interval in days (D) or hours (H), X, the number of doses. Some entries were tested several times; the values are given in rising order. Some schedule codes hold Z or #, which are not explained here. Where survival is the endpoint, the PubChem record calls one and a half times the control and up active, and a quarter to a half above the control has no call in these data; cut-offs in other NCI protocols can differ.

For this test, the system named is L1210 leukemia ip in BDF1 mice, survival T/C. Briefly: NCI In Vivo Anticancer Drug Screen. Data for tumor model L1210 Leukemia (intraperitoneal) in B6D2F1 (BDF1) mice. The conditions noted are these: T/C endpoint: mean survival time, higher T/C = longer survival.
[1] abbreviates: dose: 100.0 mg/kg/injection, schedule: Q01DX009 (ip), vehicle: Klucel (hydroxypropylcellulose) (HPC).
Setting [2] is: dose: 400.0 mg/kg/injection, schedule: Q01DX009 (ip), vehicle: Klucel (hydroxypropylcellulose) (HPC).
Setting [3] is: dose: 400.0 mg/kg/injection, schedule: Q01DX001 (ip), vehicle: saline.
Setting [4] is: dose: 400.0 mg/kg/injection, schedule: Q04DX003 (ip), vehicle: saline with Tween-80.
[5] abbreviates: dose: 100.0 mg/kg/injection, schedule: Q04DX003 (ip), vehicle: saline with Tween-80.
Setting [6] is: dose: 200.0 mg/kg/injection, schedule: Q04DX003 (ip), vehicle: saline with Tween-80.
[7] abbreviates: dose: 200.0 mg/kg/injection, schedule: Q04DX002 (ip), vehicle: Klucel (hydroxypropylcellulose) (HPC).
[8] abbreviates: dose: 400.0 mg/kg/injection, schedule: Q04DX002 (ip), vehicle: Klucel (hydroxypropylcellulose) (HPC).
[9] abbreviates: dose: 200.0 mg/kg/injection, schedule: Q04DX003 (ip), vehicle: Klucel (hydroxypropylcellulose) (HPC).
Setting [10] is: dose: 400.0 mg/kg/injection, schedule: Q04DX003 (ip), vehicle: Klucel (hydroxypropylcellulose) (HPC).
The mark [11] stands for this setting: dose: 200.0 mg/kg/injection, schedule: Q01DX009 (ip), vehicle: Klucel (hydroxypropylcellulose) (HPC).
Where [12] appears, read: dose: 150.0 mg/kg/injection, schedule: Q01DX001 (ip), vehicle: saline.
Setting [13] is: dose: 300.0 mg/kg/injection, schedule: Q01DX001 (ip), vehicle: saline.

Regarding `CCSCC1OC(n2cnc3c(N)nc(F)nc32)C(O)C1O` (stereo unspecified), the survivor count was 6 of 6 under setting [1] and 0 of 6 (dose: 400.0 mg/kg/injection, schedule: Q01DX001 (ip), vehicle: Klucel (hydroxypropylcellulose) (HPC)).
As to `O=C(CCCl)N1CCN(C(=O)CCCl)CC1`, the T/C was 126 % of control (dose: 176.0 mg/kg/injection, schedule: Q01DX009 (ip), vehicle: saline) and 130 % of control (dose: 264.0 mg/kg/injection, schedule: Q01DX009 (ip), vehicle: saline).
Turning to `CCN(CC)CCNC(=O)c1ccc(N=Cc2cc(Cl)cc(Cl)c2O)cc1`, the survivor count under setting [2] is 1 of 6.
As for `NC(N)=NCCN=C(N)N`, the survivor count is listed as 5 of 6 (dose: 240.0 mg/kg/injection, schedule: Q01DX Z (oral), vehicle: saline) and 2 of 6 (dose: 480.0 mg/kg/injection, schedule: Q01DX Z (oral), vehicle: saline).
On to `O=C(O)c1cc(N2CCCC2)ccn1`, for which the survivor count under setting [3] is on record as 0 of 6.
`CCC1N(C)CCCN1C`: the survivor count under setting [4] is 0 of 6.
Turning to `Cc1nc2ccccc2nc1CBr`, the survivor count reads like this: under setting [5], 6 of 6; under setting [6], 3 of 6; under setting [4], 3 of 6.
Take `CC(=O)[O][Hg][c]1cc(-c2ccc(N=Nc3c(S(=O)(=O)O)cc4cccc(N)c4c3O)cc2)ccc1N=Nc1c(S(=O)(=O)O)cc2cccc(N)c2c1O`: the survivor count is on record as 0 of 6 under setting [5], 0 of 6 under setting [6] and 0 of 6 under setting [4].
Turning to `O=C(c1ccc2cc(Cl)c(Cl)cc2c1)C(Cl)Cl`, the survivor count runs as follows: under setting [7], 1 of 3; under setting [8], 0 of 3.
For the molecule `O=C(CCCC(=O)N/N=C/c1ccc2ccccc2n1)N/N=C\c1ccc2ccccc2n1`, for the setting “dose: 200.0 mg/kg/injection, schedule: Q01DX001 (ip), vehicle: other”, the survivor count is 4 of 4.
For `Clc1ccc2c(c1)C1=NCCCN1c1cc(Cl)ccc1-2`, the survivor count (dose: 40.0 mg/kg/injection, schedule: Q04DX003 (ip), vehicle: Klucel (hydroxypropylcellulose) (HPC)) was 0 of 6; the survivor count (dose: 80.0 mg/kg/injection, schedule: Q04DX003 (ip), vehicle: Klucel (hydroxypropylcellulose) (HPC)) is reported as 0 of 6; the survivor count (dose: 100.0 mg/kg/injection, schedule: Q04DX003 (ip), vehicle: Klucel (hydroxypropylcellulose) (HPC)) was 0 of 6; the survivor count under setting [9] is listed as 0 of 6; the survivor count under setting [10] is 0 of 6.
Regarding `Cc1c(C)c(O)c(Br)c(C)c1O` (tested in a mixture with another compound), the survivor count is, setting by setting: under setting [6], 6 of 6; under setting [4], 3 of 6.
Turning to `CC(C)NC(=S)Nc1ccccc1`, the survivor count (dose: 150.0 mg/kg/injection, schedule: Q01DX001 (ip), vehicle: other) was 3 of 6 and the survivor count (dose: 300.0 mg/kg/injection, schedule: Q01DX001 (ip), vehicle: other) is recorded as 0 of 6.
As for `CC(=O)OCC1OC(n2cnc3c(=O)[nH]c(N)nc32)C(OC(C)=O)C1OC(C)=O` (stereo unspecified), for the setting “dose: 100.0 mg/kg/injection, schedule: Q01DX005 (ip), vehicle: saline”, the survivor count was 6 of 6.
For the molecule `O=C(O)C1=CC2C=C(Cl)C=CC2OC1=O` (stereo unspecified), the survivor count under setting [3] is on record as 0 of 6.
As for `CC(C)C[n+]1cc([O-])on1`, the survivor count runs as follows: (dose: 25.0 mg/kg/injection, schedule: Q01DX009 (ip), vehicle: Klucel (hydroxypropylcellulose) (HPC)) 0 of 6; under setting [1], 0 of 6; under setting [11], 0 of 6; under setting [2], 0 of 6.
Take `CCCC[As](=O)(O)CC(C)C`: the survivor count reads like this: (dose: 25.0 mg/kg/injection, schedule: Q01DX009 (ip), vehicle: saline) 0 of 3; (dose: 50.0 mg/kg/injection, schedule: Q01DX009 (ip), vehicle: saline) 0 of 3; (dose: 100.0 mg/kg/injection, schedule: Q01DX009 (ip), vehicle: saline) 0 of 3 and 0 of 6; (dose: 200.0 mg/kg/injection, schedule: Q01DX009 (ip), vehicle: saline) 0 of 6; (dose: 400.0 mg/kg/injection, schedule: Q01DX009 (ip), vehicle: saline) 0 of 6.
As to `O=C(NCCCl)NC(C1CC1)C1CC1`, the survivor count (dose: 400.0 mg/kg/injection, schedule: Q01DX009 (ip), vehicle: saline with Tween-80) is 3 of 6.
Consider `NC1(N)Sc2nc3ccccc3nc2S1`, for which the survivor count is, setting by setting: (dose: 200.0 mg/kg/injection, schedule: Q04DX002 (ip), vehicle: saline with Tween-80) 3 of 3; (dose: 400.0 mg/kg/injection, schedule: Q04DX002 (ip), vehicle: saline with Tween-80) 0 of 3.
Turning to `Cc1cccc(CN=C(N)CSS(=O)(=O)O)n1`, the survivor count is 0 of 3 under setting [1], 0 of 3 under setting [7] and 0 of 3 under setting [8].
On to `NC(=O)Cc1csc2ccccc12`, for which, under setting [3], the survivor count is listed as 1 of 4.
`CN1C(=O)C(Br)=C(Br)C1=O`: the survivor count (dose: 20.0 mg/kg/injection, schedule: Q01DX001 (ip), vehicle: saline) was 1 of 6; the survivor count (dose: 40.0 mg/kg/injection, schedule: Q01DX001 (ip), vehicle: saline) was 0 of 6; the survivor count (dose: 75.0 mg/kg/injection, schedule: Q01DX001 (ip), vehicle: saline) is given as 1 of 6; the survivor count (dose: 80.0 mg/kg/injection, schedule: Q01DX001 (ip), vehicle: saline) is 0 of 6; the survivor count under setting [12] is 0 of 6; the survivor count under setting [13] is on record as 0 of 6.
Turning to `CCCCCCCCCC(=O)NC(=S)Nc1ccc(Br)cc1`, the survivor count reads like this: under setting [11], 3 of 3; under setting [2], 3 of 3 and 6 of 6.
As for `C/C(CC(C)C)=N/Nc1nc(C)cc(=O)[nH]1`, under setting [2], the survivor count was 4 of 6.
With `O=C(/C=C/c1cccc(Cl)c1)c1ccc(Cl)cc1`, the T/C (dose: 100.0 mg/kg/injection, schedule: Q04DX003 (ip), vehicle: carboxymethylcellulose (CMC)) is recorded as 87, 92, 94, 103 % of control. The survivor count reads like this: (dose: 200.0 mg/kg/injection, schedule: Q04DX003 (ip), vehicle: carboxymethylcellulose (CMC)) 3 of 3; (dose: 400.0 mg/kg/injection, schedule: Q01DX009 (ip), vehicle: carboxymethylcellulose (CMC)) 6 of 6; (dose: 400.0 mg/kg/injection, schedule: Q04DX003 (ip), vehicle: carboxymethylcellulose (CMC)) 3 of 3.
Turning to `Cc1ccc(C)c(NS(=O)(=O)c2cc(Cl)c(Cl)cc2Cl)c1`, under setting [2], the survivor count was 3 of 6.
Turning to `CC(Cc1ccccc1)NC(=O)NCCCl` (stereo unspecified), under setting [10], the survivor count was 2 of 6.
With `NC1(CSS(=O)(=O)O)CCN1` (stereo unspecified), the survivor count reads like this: (dose: 100.0 mg/kg/injection, schedule: Q04DX002 (ip), vehicle: saline) 0 of 3; (dose: 200.0 mg/kg/injection, schedule: Q04DX002 (ip), vehicle: saline) 0 of 3; (dose: 400.0 mg/kg/injection, schedule: Q04DX002 (ip), vehicle: saline) 0 of 3.
For the molecule `COc1cc(C)cc(C(=O)O)c1O`, the survivor count (dose: 100.0 mg/kg/injection, schedule: Q01DX001 (ip), vehicle: carboxymethylcellulose (CMC)) is listed as 4 of 4 and the survivor count (dose: 400.0 mg/kg/injection, schedule: Q01DX001 (ip), vehicle: carboxymethylcellulose (CMC)) was 4 of 4.
As for `CCOc1c(C(=O)O)cnc2ccccc12`, the survivor count by setting is: under setting [12], 3 of 6; under setting [13], 0 of 6.
On to `N#CCc1c(Cl)ccc(Cl)c1Cl`, for which the survivor count under setting [1] is listed as 1 of 6, the survivor count under setting [11] is recorded as 0 of 6, the survivor count under setting [9] is listed as 1 of 6 and the survivor count under setting [10] is listed as 2 of 6.

The values are drawn from PubChem BioAssay AID248 (DTP/NCI, 2004).
